For one compound, IC50 results are on record in ChEMBL document CHEMBL5029155, “Design, Synthesis, and Biological Evaluation of Stable Colchicine-Binding Site Tubulin Inhibitors 6-Aryl-2-benzoyl-pyridines as Potential Anticancer Agents” (J Med Chem, 2021).

Holding throughout (format): functional, cell-based
Experiment [1] has as its system A-375. Description: Cytotoxicity against human A-375 cells measured after 72 hrs by western blot. To be noted: A-375, 72 h. Background: A western blot detects proteins with antibodies after separation by electrophoresis.
The nature of experiment [2]: Cytotoxicity against paclitaxel resistant human A-375/TxR cells measured after 72 hrs […]. The following applies: A375/TxR.
The subject of experiment [3] is MDA-MB-231. Description: Cytotoxicity against human MDA-MB-231 cells measured after 72 hrs […]. The following applies: MDA-MB-231, 72 h.
Experiment [4] is described as follows: Cytotoxicity against paclitaxel resistant human MDA-MB-231/TxR cells measured after 72 hrs […].

With `COc1cc2c(c(OC)c1OC)-c1ccc(OC)c(=O)cc1[C@@H](NC(C)=O)CC2` [COLCHICINE], the half-inhibitory concentration (IC50) (as a rule, the concentration that gives 50% inhibition) in experiment [1] came to 16.8 nM; in experiment [2], 29.6 nM; in experiment [3], 24.3 nM; in experiment [4] it was 24 nM.
